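Recombinant human HSD17B10 (3-hydroxyacyl-CoA dehydrogenase type-2) enzyme, with activity tracked as NADH fluorescence build-up in a kinetic read.
Each compound was run as a 15-point series from about 0.0007 to 57 µM.
Fitted half-maximal potency (AC50) from the inhibition curve; a lower value means a more potent inhibitor. The record's title names HSD17B4; its protocol and target entry give this enzyme.
Active means a well-fitted inhibition curve with a large enough effect; inconclusive means a weak, poorly fitted or top-concentration-only effect.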

Values are in nM.
Only part of the assay is listed here, not a random draw.
A potency from a partial, single-point or poor curve is only a rough figure.
Some entries filed as inconclusive have a full curve.

structure,fitted potency (nM),outcome,remark
Cc1csc(NC(=O)c2sc3nc(-c4cccs4)ccc3c2N)n1,12589,active,-
CCOC(=O)c1cc2c(=O)n3ccccc3nc2n(CCOC)c1=NC(=O)C(C)(C)C,25118,active,-
CCn1nc(NC(=O)c2ccccn2)c2cc3cccc(C)c3nc21,5012,inconclusive,"inhibitor, full curve"
CCOCCCn1c(=N)c(C(N)=S)cc2c(=O)n3cccc(C)c3nc21,25118,active,-
COc1ccc2nc(N3CCCC(O)C3)c(C#N)cc2c1 (configuration not stated),31622,inconclusive,"inhibitor, single point"
Cc1ccc2cc3c(NC(=O)CC(C)C)nn(C)c3nc2c1,39810,inconclusive,"inhibitor, single point"
Cn1c(=O)c(-c2cc(F)cc(F)c2)nc2cnc(N3CCNCC3)nc21,12589,active,-
O=c1[nH]c2cc3c(cc2cc1CN(CCCO)Cc1nnnn1Cc1ccc(F)cc1)OCO3,31622,inconclusive,"inhibitor, single point"
CCCCn1c(NC(=O)c2ccccc2Cl)c(C#N)c2nc3ccccc3nc21,25118,active,-
CC1(C)CC(=O)C2=C(C1)N(CCN1CCOCC1)C1=C(C(=O)CC(C)(C)C1)C2c1cccc(Cl)c1,31622,active,-
Cc1ccc2c(c1)c1c3n2CCN=C3CCC1,12589,active,-
COC(=O)c1cc(-c2ccc3c(c2)OCO3)nc2ccccc12,31622,inconclusive,"inhibitor, single point"
Cn1c(=O)c(-c2cc(F)cc(F)c2)nc2cnc(Oc3ccccc3)nc21,39810,inconclusive,"inhibitor, single point"
CCCN1CCCc2cc(CN)ccc21,25118,inconclusive,"inhibitor, partial curve"
CN1CCN(c2ncc3nc(-c4cccs4)c(=O)n(Cc4ccc(F)cc4)c3n2)CC1,39810,inconclusive,"inhibitor, single point"
CN(C)c1ncc2nc(-c3cc(F)cc(F)c3)c(=O)n(CCc3ccccc3)c2n1,39810,inconclusive,"inhibitor, single point"
CS(=O)c1ccc(-c2nc(-c3ccc(F)cc3)c(-c3ccncc3)[nH]2)cc1 (configuration not stated),39810,active,-
COC(=O)c1ccc(C(=O)OC)c(N)c1,31622,active,-
CCNc1ncc2nc(-c3cccs3)c(=O)n(Cc3cccs3)c2n1,19952,inconclusive,"inhibitor, single point"
COc1ccc(C2=CC(c3c(C)nn(-c4ccccc4)c3Cl)n3nnnc3N2)cc1OC (configuration not stated),31622,inconclusive,"inhibitor, single point"
Nc1c2c(nc3ccccc13)CCCC2,15848,inconclusive,"inhibitor, single point"
CSC1=NP(=S)(SC)N(C)c2nc3n(c21)CCC3 (configuration not stated),39810,inconclusive,"inhibitor, single point"
COc1ccc(NCc2cc3cc(OC)ccc3[nH]c2=O)cc1,31622,active,-
CC(C)C(=O)Nc1ccccc1N1CCN(S(C)(=O)=O)CC1,31622,active,-
CCNc1ncc2nc(-c3ccc(Cl)cc3)c(=O)n(CCC#N)c2n1,31622,active,-
O=c1c(-c2ccc(Cl)cc2)nc2cnc(Oc3ccccc3)nc2n1C1CC1,31622,inconclusive,"inhibitor, single point"
Nc1nc(N)c2nc(-c3ccccc3)c(N)nc2n1,5012,active,-
Cc1ccc2nc(N3CCN(Cc4nnnn4Cc4ccccc4)CC3)c(C#N)cc2c1,31622,inconclusive,"inhibitor, single point"
COc1cccc(Nc2ncc3nc(-c4ccccc4)c(=O)n(Cc4cccs4)c3n2)c1,31622,inconclusive,"inhibitor, single point"
Cn1nnnc1SCc1ccc(C(=O)Nc2nccs2)cc1,10000,inconclusive,"inhibitor, partial curve"
CC(C)OCCCNC(=O)c1c(N)n(Cc2cccs2)c2nc3ccccc3nc12,25118,active,-
CCOC(=O)c1cc2c(=O)n3ccccc3nc2n(CC(C)C)c1=NC(=O)c1ccco1,15848,active,-
O=C(CN1C(=O)c2cccc3cccc1c23)NCc1ccc2c(c1)OCO2,39810,inconclusive,"inhibitor, single point"
CCn1c(Cc2ccc(OC)cc2)nnc1SCC(=O)Nc1cccc(C(=O)OC)c1,25118,active,-
COC(=O)C1=C(C)NC2=C(C(=O)CCC2)C1c1ccccn1 (configuration not stated),31622,inconclusive,"inhibitor, single point"
N#CC1=C(N)OC2=C(CCC/C2=C/c2ccoc2)C1c1ccoc1 (configuration not stated),25118,inconclusive,"inhibitor, partial curve"
CCOC(=O)c1ccc(NC(=O)CSc2nc(C)cc(=O)[nH]2)cc1,25118,inconclusive,"inhibitor, partial curve"
C[C@@H]1C[C@@H]2[C@H]3CCC4=CC(=O)C=C[C@]4(C)[C@]3(F)[C@@H](O)C[C@@]2(C)[C@@]1(O)C(=O)CO,39810,inconclusive,"inhibitor, single point"
Cc1cc(C)c2cc(C#N)c(N3CCCC3)nc2c1,31622,active,-
COc1ncc2nc(-c3cc(F)cc(F)c3)c(=O)n(Cc3cccs3)c2n1,31622,inconclusive,"inhibitor, single point"
O=c1c(-c2ccccc2)nc2cnc(N3CCOCC3)nc2n1C[C@H]1CCCO1,31622,active,-
COCCn1c(=O)c(-c2ccc(F)cc2)nc2cnc(N(C)C)nc21,12589,active,-
Cc1cccc2cc(C#N)c(NCCNS(=O)(=O)c3ccc4c(c3)OCCO4)nc12,25118,active,-
Cc1ccc(-c2cc(C(=O)NCCCn3ccnc3)c3cc(Br)ccc3n2)o1,31622,inconclusive,"inhibitor, single point"
N#CC1=C(N)Oc2cc(N)ccc2C1C1CC=CCC1 (configuration not stated),39810,inconclusive,"inhibitor, single point"
CC1CCN(CCCNC(=O)c2coc3nc4ccccc4nc23)CC1,12589,active,-
COCCn1nnnc1C(C(C)C)N(Cc1ccccc1)Cc1cc2cc(OC)ccc2[nH]c1=O (configuration not stated),31622,inconclusive,"inhibitor, single point"
COc1ccc(-n2c(=O)cnc3cnc(N4CCNCC4)nc32)cc1,31622,inconclusive,"inhibitor, single point"
CN(C)c1nc(-c2ccccc2)c2cnn(Cc3ccccc3)c2n1,31622,active,-
Cc1ccc(-c2nc3cnccn3c2Nc2ccccc2)o1,31622,inconclusive,"inhibitor, single point"
CNC(=O)c1cc2c(=O)n3cccc(C)c3nc2n(C(C)C)c1=N,25118,active,-
Cc1cc(NCCN2CCCCC2)n2c(nc3ccccc32)c1C#N,25118,inconclusive,"inhibitor, single point"
CCCCn1c(O)c(C(CC)=Nc2cccc(C(=O)O)c2)c(=O)[nH]c1=O,31622,inconclusive,"inhibitor, single point"
CCCCn1c(SCC(=O)Nc2cccc(OC)c2)nc2ccc(N3CCOCC3)cc2c1=O,31622,inconclusive,"inhibitor, single point"
O=C(COC(=O)C1CC2C=CC1C2)NCc1ccco1 (configuration not stated),25118,inconclusive,"inhibitor, single point"
O=C(O)c1ccc2[nH]cc(CCCCN3CC=C(c4ccccc4)CC3)c2c1,31622,inconclusive,"inhibitor, single point"
O=C(NCc1ccco1)c1nc2nc(-c3cccs3)cc(C(F)(F)F)n2n1,31622,active,-
O=C1Nc2ccc(S(=O)(=O)N3CCOCC3)c3cccc1c23,25118,active,-
Cc1cc(SCc2sc(-c3ccc(C(F)(F)F)c(F)c3)nc2C)ccc1OCC(=O)O,31622,inconclusive,"inhibitor, single point"
O=c1c(-c2ccc(Cl)cc2)nc2cnc(N3CCNCC3)nc2n1Cc1cccs1,25118,inconclusive,"inhibitor, single point"
COc1ccc2[nH]c(=O)c(CN(Cc3ccco3)Cc3nnnn3Cc3ccccc3)cc2c1,25118,active,-
O=C(COc1ccccc1)Nc1cccc2nsnc12,39810,inconclusive,"inhibitor, single point"
Cn1c(=O)c2[nH]c(CNCc3ccccc3Cl)nc2n(C)c1=O,39810,inconclusive,"inhibitor, single point"
Cc1cccn2c(=O)c3cc(C(=O)NC(C)C)c(=N)n(Cc4ccncc4)c3nc12,25118,active,-
Cc1cccc(S(=O)(=O)C(C#N)c2nc3ccccc3nc2N2CC(C)OC(C)C2)c1 (configuration not stated),39810,inconclusive,"inhibitor, single point"
O=C(c1cc2nc(-c3ccco3)cc(C(F)(F)F)n2n1)N1CCCCCC1,39810,inconclusive,"inhibitor, single point"
COc1ncc2nc(-c3ccc(F)cc3)c(=O)n(-c3ccccc3)c2n1,25118,active,-
CC1CCC2C(C)C(=O)OC3OC4(C)CCC1C32OO4 (configuration not stated),39810,inconclusive,"inhibitor, single point"
c1ccc2nc(N3CCCC3)c(N3CCCC3)nc2c1,31622,inconclusive,"inhibitor, single point"
Cc1onc(-c2c(F)cccc2Cl)c1C(=O)Nc1cccc2nsnc12,39810,inconclusive,"inhibitor, single point"
N#CCCn1c(=O)c(-c2cc(F)cc(F)c2)nc2cnc(OCc3ccccc3)nc21,25118,active,-
COCCCn1c(N)c(C(=O)OC(C)COC)c2nc3ccccc3nc21 (configuration not stated),31622,active,-
Cc1cccc2cc3c(NC(=O)C(C)C)nn(C)c3nc12,39810,inconclusive,"inhibitor, single point"
CCCCCCCC/C=C\CCCCCCCC(=O)O,19952,active,-
CCCOc1ccccc1C1C(C(=O)OC)=CN(C(C)C)C=C1C(=O)OC,25118,active,-
Cc1cccn2c(=O)c3cc(C#N)c(=NC(=O)c4ccncc4)n(Cc4ccco4)c3nc12,31622,active,-
O=C(NCc1ccco1)c1cc2nc(-c3ccc4c(c3)OCO4)cc(C(F)(F)F)n2n1,39810,inconclusive,"inhibitor, single point"
COc1ccc2[nH]c(=O)c(CN(Cc3ccccc3OC)Cc3nnnn3CC3CCCO3)cc2c1 (configuration not stated),31622,active,-
CN(C)c1ncc2nc(-c3ccc(F)cc3)c(=O)n(CCC#N)c2n1,10000,inconclusive,"inhibitor, partial curve"
O=C(NCc1ccco1)c1c2c(nc3ccccc13)CCC2,31622,inconclusive,"inhibitor, single point"
CCOC(=O)c1cc(-c2ccc3c(c2)OCO3)nc2onc(C)c12,31622,inconclusive,"inhibitor, single point"
COc1ccc(-c2nc3cnc(N4CCN(C)CC4)nc3n(-c3ccc(OC)cc3)c2=O)cc1,39810,inconclusive,"inhibitor, single point"
C[C@]12C[C@H](O)[C@H]3[C@@H](CCC4=CC(=O)CC[C@@]43C)[C@@H]1CC[C@@H]2C(=O)CO,25118,inconclusive,"inhibitor, single point"

The results are deposited in PubChem (AID893; NCATS, 2007).